This is one part of the list.
How the values were obtained:
Assay in all cases: glycan array binding signal (z-score within array); higher = stronger binding
Conditions in all cases: glycan notation: IUPAC condensed, linker removed
Glc(b1-6)Glc = molecular target: Glc(b1-6)Glc
Outline: (§1)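 Columns mapping to the same glycan were averaged after glycan names were converted to IUPAC-condensed notation. The data come from 3228 arrays in the Consortium for Functional Glycomics database, limited to those with an available protein sequence. Binding is reported as a within-array Z-score averaged across arrays of one protein sequence and across linkers.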

GlcA(b1-3)Gal = molecular target: GlcA(b1-3)Gal
Outline: as §1

GlcA(b1-3)GlcNAc = molecular target: GlcA(b1-3)GlcNAc
Outline: as §1

GlcA(b1-6)Gal = molecular target: GlcA(b1-6)Gal
Outline: as §1

[1] = molecular target: GlcA3S(b1-3)Gal(b1-4)GlcNAc(b1-2)Man
Outline: as §1

[2] = molecular target: GlcA3S(b1-3)Gal(b1-4)GlcNAc(b1-3)Gal(b1-4)Glc
Outline: as §1

[3] = molecular target: GlcNAc(a1-3)Gal(b1-4)GlcNAc
Outline: as §1

[4] = molecular target: GlcNAc(a1-4)Gal(b1-3)GlcNAc
Outline: as §1

[5] = molecular target: GlcNAc(a1-4)Gal(b1-4)GalNAc
Outline: as §1

[6] = molecular target: GlcNAc(a1-4)Gal(b1-4)GlcNAc
Outline: as §1

[7] = molecular target: GlcNAc(a1-4)Gal(b1-4)GlcNAc(b1-3)Gal(b1-4)Glc
Outline: as §1

[8] = molecular target: GlcNAc(a1-4)Gal(b1-4)GlcNAc(b1-3)Gal(b1-4)GlcNAc
Outline: as §1

[9] = molecular target: GlcNAc(a1-4)Gal(b1-4)GlcNAc(b1-3)Gal(b1-4)GlcNAc(b1-3)Gal(b1-4)GlcNAc
Outline: as §1

[10] = molecular target: GlcNAc(a1-4)Gal(b1-4)GlcNAc(b1-3)Gal(b1-4)[Fuc(a1-3)]GlcNAc(b1-3)Gal(b1-4)[Fuc(a1-3)]GlcNAc
Outline: as §1

[11] = molecular target: GlcNAc(a1-6)Gal(b1-4)GlcNAc
Outline: as §1

[12] = molecular target: GlcNAc(b1-2)Gal(b1-3)GalNAc
Outline: as §1

[13] = molecular target: GlcNAc(b1-2)Man(a1-3)[GlcNAc(b1-2)Man(a1-6)]Man(b1-4)GlcNAc(b1-4)GlcNAc
Outline: as §1

[14] = molecular target: GlcNAc(b1-2)Man(a1-3)[GlcNAc(b1-2)Man(a1-6)]Man(b1-4)GlcNAc(b1-4)[Fuc(a1-6)]GlcNAc
Outline: as §1

[15] = molecular target: GlcNAc(b1-2)Man(a1-3)[GlcNAc(b1-4)][GlcNAc(b1-2)Man(a1-6)]Man(b1-4)GlcNAc(b1-4)GlcNAc
Outline: as §1

[16] = molecular target: GlcNAc(b1-2)Man(a1-3)[GlcNAc(b1-4)][GlcNAc(b1-2)Man(a1-6)]Man(b1-4)GlcNAc(b1-4)[Fuc(a1-6)]GlcNAc
Outline: as §1

[17] = molecular target: GlcNAc(b1-2)[GlcNAc(b1-4)]Man(a1-3)[GlcNAc(b1-2)Man(a1-6)]Man(b1-4)GlcNAc(b1-4)GlcNAc
Outline: as §1

[18] = molecular target: GlcNAc(b1-2)[GlcNAc(b1-4)]Man(a1-3)[GlcNAc(b1-4)][GlcNAc(b1-2)Man(a1-6)]Man(b1-4)GlcNAc(b1-4)GlcNAc
Outline: as §1

[19] = molecular target: GlcNAc(b1-2)[GlcNAc(b1-4)]Man(a1-3)[GlcNAc(b1-4)][GlcNAc(b1-2)[GlcNAc(b1-6)]Man(a1-6)]Man(b1-4)GlcNAc(b1-4)GlcNAc
Outline: as §1

[20] = molecular target: GlcNAc(b1-2)[GlcNAc(b1-4)]Man(a1-3)[GlcNAc(b1-4)][GlcNAc(b1-2)[GlcNAc(b1-6)]Man(a1-6)]Man(b1-4)GlcNAc(b1-4)[Fuc(a1-6)]GlcNAc
Outline: as §1

[21] = molecular target: GlcNAc(b1-2)[GlcNAc(b1-6)]Man(a1-6)[GlcNAc(b1-2)Man(a1-3)]Man(b1-4)GlcNAc(b1-4)GlcNAc
Outline: as §1

[22] = molecular target: GlcNAc(b1-2)[GlcNAc(b1-6)]Man(a1-6)[GlcNAc(b1-2)Man(a1-3)]Man(b1-4)GlcNAc(b1-4)[Fuc(a1-6)]GlcNAc
Outline: as §1

[23] = molecular target: GlcNAc(b1-2)[GlcNAc(b1-6)]Man(a1-6)[GlcNAc(b1-4)][GlcNAc(b1-2)Man(a1-3)]Man(b1-4)GlcNAc(b1-4)GlcNAc
Outline: as §1

GlcNAc(b1-3)Fuc = molecular target: GlcNAc(b1-3)Fuc
Outline: as §1

GlcNAc(b1-3)Gal = molecular target: GlcNAc(b1-3)Gal
Outline: as §1

[24] = molecular target: GlcNAc(b1-3)Gal(b1-3)GalNAc
Outline: as §1

GlcNAc(b1-3)Gal(b1-4)Glc = molecular target: GlcNAc(b1-3)Gal(b1-4)Glc
Outline: as §1

[25] = molecular target: GlcNAc(b1-3)Gal(b1-4)GlcNAc
Outline: as §1

[26] = molecular target: GlcNAc(b1-3)Gal(b1-4)GlcNAc(b1-2)Man(a1-3)[GlcNAc(b1-3)Gal(b1-4)GlcNAc(b1-2)Man(a1-6)]Man(b1-4)GlcNAc(b1-4)GlcNAc
Outline: as §1

[27] = molecular target: GlcNAc(b1-3)Gal(b1-4)GlcNAc(b1-2)Man(a1-3)[GlcNAc(b1-3)Gal(b1-4)GlcNAc(b1-2)Man(a1-6)]Man(b1-4)GlcNAc(b1-4)[Fuc(a1-6)]GlcNAc
Outline: as §1

[28] = molecular target: GlcNAc(b1-3)Gal(b1-4)GlcNAc(b1-2)[GlcNAc(b1-3)Gal(b1-4)GlcNAc(b1-6)]Man(a1-6)[GlcNAc(b1-3)Gal(b1-4)GlcNAc(b1-2)Man(a1-3)]Man(b1-4)GlcNAc(b1-4)GlcNAc
Outline: as §1

[29] = molecular target: GlcNAc(b1-3)Gal(b1-4)GlcNAc(b1-3)Gal(b1-4)GlcNAc
Outline: as §1

[30] = molecular target: GlcNAc(b1-3)Gal(b1-4)GlcNAc(b1-3)Gal(b1-4)GlcNAc(b1-2)Man(a1-3)[GlcNAc(b1-3)Gal(b1-4)GlcNAc(b1-3)Gal(b1-4)GlcNAc(b1-2)Man(a1-6)]Man(b1-4)GlcNAc(b1-4)GlcNAc
Outline: as §1

[31] = molecular target: GlcNAc(b1-3)Gal(b1-4)GlcNAc(b1-3)Gal(b1-4)GlcNAc(b1-2)Man(a1-3)[GlcNAc(b1-3)Gal(b1-4)GlcNAc(b1-3)Gal(b1-4)GlcNAc(b1-2)Man(a1-6)]Man(b1-4)GlcNAc(b1-4)[Fuc(a1-6)]GlcNAc
Outline: as §1

[32] = molecular target: GlcNAc(b1-3)Gal(b1-4)GlcNAc(b1-3)Gal(b1-4)GlcNAc(b1-2)[GlcNAc(b1-3)Gal(b1-4)GlcNAc(b1-3)Gal(b1-4)GlcNAc(b1-6)]Man(a1-6)[GlcNAc(b1-3)Gal(b1-4)GlcNAc(b1-3)Gal(b1-4)GlcNAc(b1-2)Man(a1-3)]Man(b1-4)GlcNAc(b1-4)[Fuc(a1-6)]GlcNAc
Outline: as §1

[33] = molecular target: GlcNAc(b1-3)Gal(b1-4)GlcNAc(b1-3)Gal(b1-4)GlcNAc(b1-3)Gal(b1-4)GlcNAc(b1-2)Man(a1-3)[GlcNAc(b1-3)Gal(b1-4)GlcNAc(b1-3)Gal(b1-4)GlcNAc(b1-3)Gal(b1-4)GlcNAc(b1-2)Man(a1-6)]Man(b1-4)GlcNAc(b1-4)GlcNAc
Outline: as §1

[34] = molecular target: GlcNAc(b1-3)Gal(b1-4)GlcNAc(b1-3)Gal(b1-4)GlcNAc(b1-3)Gal(b1-4)GlcNAc(b1-2)Man(a1-3)[GlcNAc(b1-3)Gal(b1-4)GlcNAc(b1-3)Gal(b1-4)GlcNAc(b1-3)Gal(b1-4)GlcNAc(b1-2)Man(a1-6)]Man(b1-4)GlcNAc(b1-4)[Fuc(a1-6)]GlcNAc
Outline: as §1

[35] = molecular target: GlcNAc(b1-3)Gal(b1-4)GlcNAc(b1-3)Gal(b1-4)GlcNAc(b1-3)Gal(b1-4)GlcNAc(b1-2)[GlcNAc(b1-3)Gal(b1-4)GlcNAc(b1-3)Gal(b1-4)GlcNAc(b1-3)Gal(b1-4)GlcNAc(b1-6)]Man(a1-6)[GlcNAc(b1-3)Gal(b1-4)GlcNAc(b1-3)Gal(b1-4)GlcNAc(b1-3)Gal(b1-4)GlcNAc(b1-2)Man(a1-3)]Man(b1-4)GlcNAc(b1-4)[Fuc(a1-6)]GlcNAc
Outline: as §1

[36] = molecular target: GlcNAc(b1-3)Gal(b1-4)GlcNAc(b1-3)Gal(b1-4)GlcNAc(b1-3)Gal(b1-4)GlcNAc(b1-3)Gal(b1-4)GlcNAc(b1-2)Man(a1-3)[GlcNAc(b1-3)Gal(b1-4)GlcNAc(b1-3)Gal(b1-4)GlcNAc(b1-3)Gal(b1-4)GlcNAc(b1-3)Gal(b1-4)GlcNAc(b1-2)Man(a1-6)]Man(b1-4)GlcNAc(b1-4)GlcNAc
Outline: as §1

[37] = molecular target: GlcNAc(b1-3)Gal(b1-4)GlcNAc(b1-3)Gal(b1-4)GlcNAc(b1-3)Gal(b1-4)GlcNAc(b1-3)Gal(b1-4)GlcNAc(b1-2)Man(a1-3)[GlcNAc(b1-3)Gal(b1-4)GlcNAc(b1-3)Gal(b1-4)GlcNAc(b1-3)Gal(b1-4)GlcNAc(b1-3)Gal(b1-4)GlcNAc(b1-2)Man(a1-6)]Man(b1-4)GlcNAc(b1-4)[Fuc(a1-6)]GlcNAc
Outline: as §1

[38] = molecular target: GlcNAc(b1-3)Gal(b1-4)GlcNAc(b1-3)Gal(b1-4)GlcNAc(b1-3)Gal(b1-4)GlcNAc(b1-3)Gal(b1-4)GlcNAc(b1-2)[GlcNAc(b1-3)Gal(b1-4)GlcNAc(b1-3)Gal(b1-4)GlcNAc(b1-3)Gal(b1-4)GlcNAc(b1-3)Gal(b1-4)GlcNAc(b1-6)]Man(a1-6)[GlcNAc(b1-3)Gal(b1-4)GlcNAc(b1-3)Gal(b1-4)GlcNAc(b1-3)Gal(b1-4)GlcNAc(b1-3)Gal(b1-4)GlcNAc(b1-2)Man(a1-3)]Man(b1-4)GlcNAc(b1-4)[Fuc(a1-6)]GlcNAc
Outline: as §1

B1: GS13599A-bth-520-23-520 (Bacteroides thetaiotaomicron) (protein)
chain: SEDTMDRINKDHDHTTSVASRFILADVITSTAFSNASGDINTYASSYIEYEVGVDNQLYYAEVRENEPSSSSTFNNSWNGIYSSLKNARIIIDQCGEGGRDHGNDVTRGMAEVMAAYNCALIADFFGDAPCSQAALVDEKGSPVYMTPKMDTQQEIYTQIISYLDDAIANLQKEDLADVTEQDFLYAGDADKWLKFAYGLKARYTMRLINRSSNKSADYEKVLDYVSKSFTSADDQAAFDIYDSNNINPFYGFYNSRAGFGASTSLGTKLLAYNDPRANRAFFTPIVDKKRSQVAANDPSLVPAPNGSPDQSTSKYGISAFVYAKTAPTLLMSYHELMFLKAEALCRLNRDAEDALKEAVVAGLLNAENSISIAIKELGSGLNTNSSEVITETSAGKYFDDVVKAKYAANPLQETMIQKYLAMWGASGEATETYNDFRRMKGLNENFITLTNPNNSSKFPLRYPYGNSDTAANPEVKAAYGNGDYVYSEPVWWAGGSR
- glycan array binding signal (z-score) (Glc(b1-6)Glc): -0.602
- glycan array binding signal (z-score) (GlcA(b1-3)Gal): -1.08
- glycan array binding signal (z-score) (GlcA(b1-3)GlcNAc): -0.356
- glycan array binding signal (z-score) (GlcA(b1-6)Gal): 1.77
- glycan array binding signal (z-score) [1]: -0.448
- glycan array binding signal (z-score) [2]: 0.88
- glycan array binding signal (z-score) [3]: -0.66
- glycan array binding signal (z-score) [4]: 0.375
- glycan array binding signal (z-score) [5]: -1.3
- glycan array binding signal (z-score) [6]: -0.237
- glycan array binding signal (z-score) [7]: -0.357
- glycan array binding signal (z-score) [8]: -0.261
- glycan array binding signal (z-score) [9]: -0.449
- glycan array binding signal (z-score) [10]: 1.74
- glycan array binding signal (z-score) [11]: -0.737
- glycan array binding signal (z-score) [12]: -0.441
- glycan array binding signal (z-score) [13]: -0.727
- glycan array binding signal (z-score) [14]: 0.409
- glycan array binding signal (z-score) [15]: 2.52
- glycan array binding signal (z-score) [16]: 1.21
- glycan array binding signal (z-score) [17]: -0.063
- glycan array binding signal (z-score) [18]: -1.27
- glycan array binding signal (z-score) [19]: 0.339
- glycan array binding signal (z-score) [20]: 0.827
- glycan array binding signal (z-score) [21]: -0.308
- glycan array binding signal (z-score) [22]: 0.819
- glycan array binding signal (z-score) [23]: 1.19
- glycan array binding signal (z-score) (GlcNAc(b1-3)Fuc): -0.118
- glycan array binding signal (z-score) (GlcNAc(b1-3)Gal): -1.3
- glycan array binding signal (z-score) [24]: 1.12
- glycan array binding signal (z-score) (GlcNAc(b1-3)Gal(b1-4)Glc): -1.27
- glycan array binding signal (z-score) [25]: -0.599
- glycan array binding signal (z-score) [26]: -0.584
- glycan array binding signal (z-score) [27]: -0.287
- glycan array binding signal (z-score) [28]: 1.84
- glycan array binding signal (z-score) [29]: -0.947
- glycan array binding signal (z-score) [30]: 1.66
- glycan array binding signal (z-score) [31]: 1.66
- glycan array binding signal (z-score) [32]: 1.37
- glycan array binding signal (z-score) [33]: 1.67
- glycan array binding signal (z-score) [34]: 1.88
- glycan array binding signal (z-score) [35]: 0.815
- glycan array binding signal (z-score) [36]: -0.827
- glycan array binding signal (z-score) [37]: -0.522
- glycan array binding signal (z-score) [38]: 0.725

Reference: the supplement of paper PMC8728848
